Measurements from PMC13443588.
Results are given in words; binding and its absence hold for the method and conditions named. Binding seen in cells or lysates may run through a third protein. Some results given as binding are weak or reduced against the parent protein; the word gives no strength.

By UniProt entry, the sequences of proteins in these tests, tags left out.
UniProt P35222: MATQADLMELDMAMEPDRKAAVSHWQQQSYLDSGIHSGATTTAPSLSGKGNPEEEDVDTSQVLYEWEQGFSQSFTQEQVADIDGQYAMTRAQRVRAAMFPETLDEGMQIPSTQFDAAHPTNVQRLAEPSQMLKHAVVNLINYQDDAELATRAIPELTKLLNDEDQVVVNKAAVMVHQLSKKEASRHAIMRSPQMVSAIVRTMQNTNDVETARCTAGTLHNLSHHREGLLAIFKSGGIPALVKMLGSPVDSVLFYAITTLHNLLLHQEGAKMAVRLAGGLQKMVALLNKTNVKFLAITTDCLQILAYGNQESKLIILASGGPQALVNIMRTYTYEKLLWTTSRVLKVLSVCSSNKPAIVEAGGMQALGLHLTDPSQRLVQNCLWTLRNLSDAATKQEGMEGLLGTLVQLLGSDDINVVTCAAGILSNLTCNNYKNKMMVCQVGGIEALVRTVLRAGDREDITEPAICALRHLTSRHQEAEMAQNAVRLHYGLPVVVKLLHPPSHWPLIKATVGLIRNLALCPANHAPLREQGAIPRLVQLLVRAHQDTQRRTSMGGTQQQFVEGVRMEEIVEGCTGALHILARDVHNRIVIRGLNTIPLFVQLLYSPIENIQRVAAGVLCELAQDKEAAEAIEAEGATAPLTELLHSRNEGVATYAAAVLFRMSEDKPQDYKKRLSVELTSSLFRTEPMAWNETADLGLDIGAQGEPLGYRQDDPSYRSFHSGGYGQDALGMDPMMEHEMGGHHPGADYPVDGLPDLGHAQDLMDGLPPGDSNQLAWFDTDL

Target: T1, One Cut Homeobox 2 (ONECUT2) (human (endogenous in MDA-231)) (UniProt O95948)
T1 sequence: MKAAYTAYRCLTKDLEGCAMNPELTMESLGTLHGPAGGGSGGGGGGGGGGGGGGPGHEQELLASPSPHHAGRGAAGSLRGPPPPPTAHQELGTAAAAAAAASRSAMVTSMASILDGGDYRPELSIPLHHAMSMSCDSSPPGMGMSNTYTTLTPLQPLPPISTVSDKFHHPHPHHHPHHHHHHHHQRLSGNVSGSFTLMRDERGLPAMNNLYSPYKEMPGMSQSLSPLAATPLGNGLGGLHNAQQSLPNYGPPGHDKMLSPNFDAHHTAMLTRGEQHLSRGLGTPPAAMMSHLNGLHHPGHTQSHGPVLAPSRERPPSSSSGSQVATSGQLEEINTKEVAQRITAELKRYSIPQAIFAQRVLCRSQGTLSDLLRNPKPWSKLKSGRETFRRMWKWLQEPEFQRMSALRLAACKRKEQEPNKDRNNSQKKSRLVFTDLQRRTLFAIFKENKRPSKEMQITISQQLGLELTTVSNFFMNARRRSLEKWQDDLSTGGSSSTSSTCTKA
Test: co-IP; lysates of 1 x 10^7 MDA-231 cells incubated with anti-ONECUT2 antibody or IgG isotype control overnight at 4 °C, then protein A/G magnetic beads for 6 h, eluted for western blotting (Epizyme Co-IP Kit)

Molecule	binding
beta-catenin (from UniProt P35222 1-781)	binds
POU6F2 (POU domain, class 6, transcription factor 2) (protein, UniProt P78424 1-691) MSALLQDPMIAGQVSKPLLSVRSEMNAELRGEDKAATSDSELNEPLLAPVESNDSEDTPSKLFGARGNPALSDPGTPDQHQASQTHPPFPVGPQPLLTAQQLASAVAGVMPGGPPALNQPILIPFNMAGQLGGQQGLVLTLPTANLTNIQGLVAAAAAGGIMTLPLQNLQATSSLNSQLQQLQLQLQQQQQQQQQQPPPSTNQHPQPAPQAPSQSQQQPLQPTPPQQPPPASQQPPAPTSQLQQAPQPQQHQPHSHSQNQNQPSPTQQSSSPPQKPSQSPGHGLPSPLTPPNPLQLVNNPLASQAAAAAAAMSSIASSQAFGNALSSLQGVTGQLVTNAQGQIIGTIPLMPNPGPSSQAASGTQGLQVQPITPQLLTNAQGQIIATVIGNQILPVINTQGITLSPIKPGQQLHQPSQTSVGQAASQGNLLHLAHSQASMSQSPVRQASSSSSSSSSSSALSVGQLVSNPQTAAGEVDGVNLEEIREFAKAFKIRRLSLGLTQTQVGQALSATEGPAYSQSAICRHTILRSHFFLPQEAQENTIASSLTAKLNPGLLYPARFEKLDITPKSAQKIKPVLERWMAEAEARHRAGMQNLTEFIGSEPSKKRKRRTSFTPQALEILNAHFEKNTHPSGQEMTEIAEKLNYDREVVRVWFCNKRQALKNTIKRLKQHEPATAVPLEPLTDSLEENS	binds
